{
  "source": "paper PMC3897731",
  "about": "“Antimicrobial Properties and Membrane-Active Mechanism of a Potential α-Helical Antimicrobial Derived from Cathelicidin PMAP-36” (PLoS ONE, 2014)",
  "key": {"[1]": {"assay": "Tryptophan fluorescence emission with lipid vesicles", "type": "binding"}, "[2]": {"assay": "Tryptophan fluorescence emission with lipid vesicles", "type": "binding", "remark": "listed apart in the source"}, "[3]": {"conditions": "500 µM lipid, peptide/lipid 1:50, 10 mM Tris-HCl pH 7.4, excitation 280 nm"}},
  "data": [
    {"smiles": "CC[C@H](C)[C@H](NC(=O)CN)C(=O)NCC(=O)N[C@@H](C)C(=O)N[C@H](C(=O)N[C@@H](CC(C)C)C(=O)N[C@@H](CCCCN)C(=O)N[C@H](C(=O)N[C@@H](CC(C)C)C(=O)N[C@H](C(=O)N[C@H](C(=O)NCC(=O)N[C@@H](CC(C)C)C(=O)N1CCC[C@H]1C(=O)N[C@@H](C)C(=O)N[C@@H](CC(C)C)C(=O)N[C@H](C(=O)N[C@@H](CO)C(=O)N[C@@H](Cc1c[nH]c2ccccc12)C(=O)N[C@H](C(=O)N[C@@H](CCCCN)C(=O)N[C@@H](CCCNC(=N)N)C(=O)N[C@@H](CCCCN)C(=O)N[C@@H](CCCNC(=N)N)C(=O)N[C@@H](CCC(N)=O)C(=O)N[C@@H](CCC(N)=O)C(N)=O)[C@@H](C)CC)[C@@H](C)CC)[C@@H](C)O)[C@@H](C)O)C(C)C)C(C)C", "note": "[melittin]", "values": [
      {"measurement": "Fluorescence emission maxima, PE/PG", "setting": "[1]; [3]", "result": 333, "unit": "nm"},
      {"measurement": "Blue shift of emission maximum compared to Tris buffer, PE/PG", "setting": "[1]; peptide/lipid 1:50", "result": 18, "unit": "nm"},
      {"measurement": "Fluorescence emission maxima, PC/cholesterol", "setting": "[2]; [3]", "result": 335, "unit": "nm"},
      {"measurement": "Blue shift of emission maximum compared to Tris buffer, PC/cholesterol", "setting": "[2]; peptide/lipid 1:50", "result": 16, "unit": "nm"}
    ]}
  ]
}
